Results deposited as PubChem BioAssay AID504791 (Drosophila RNAi Screening Center, 2011).
The screen tested about 23,000 reagents; this is a random part of those with a known target gene and a result. Over the whole deposit, 199 (0.86%) are marked active. 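Plate-scaled ratios behind the calls are not deposited; printed light signals are raw; many rows marked increased or decreased are still called inactive.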 Entries without a mark were called inactive. Not given: the direction of the score.

- Purpose: 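Genes whose knock-down strengthens or weakens small-RNA reporter silencing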 (primary screen)
- System: Drosophila S2-derived reporter cells
- Reagent: long dsRNA against Drosophila genes, about 150-250 ng dsRNA per well (siRNA assay); about 80-120 ng (miRNA assay)
- Timing: about 5 days (siRNA assay); about 4 days (miRNA assay)
- Treatment: copper sulfate induction of reporters: 25 µM (siRNA assay); 200 mM stated (miRNA assay), 1-2 days before reading
- Detection: 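Dual luciferase assay: Renilla to firefly signal ratio in each well, scaled to the mean ratio of its plate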
- Units: stable assay Renilla, run 1 in luminescence; stable assay firefly, run 1 in luminescence
- Hit rule: 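First-pass picks had plate-scaled ratios over 1.5 for the siRNA assay, over 1.6 for the miRNA assay, or under 0.6; two distinct dsRNAs had to score alike on retest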

CG30283 [DRSC04071]
- stable assay Renilla, run 1: 7918
- stable assay firefly, run 1: 4.50e5

bam [DRSC16907]
- stable assay Renilla, run 1: 6539
- stable assay firefly, run 1: 3.87e5

CG14106 [DRSC10109]
- stable assay Renilla, run 1: 6067
- stable assay firefly, run 1: 3.46e5

CG31612 [DRSC03697]
- stable assay Renilla, run 1: 4807
- stable assay firefly, run 1: 4.74e5

CG31612 [DRSC03698]
- stable assay Renilla, run 1: 7106
- stable assay firefly, run 1: 4.28e5

kairos [DRSC19972]
- stable assay Renilla, run 1: 6943
- stable assay firefly, run 1: 4.35e5

kairos [DRSC23286]
- stable assay Renilla, run 1: 2976
- stable assay firefly, run 1: 2.74e5

mRpS18C [DRSC16538]
- stable assay Renilla, run 1: 6294
- stable assay firefly, run 1: 5.41e5

mRpL35 [DRSC14586]
- stable assay Renilla, run 1: 6154
- stable assay firefly, run 1: 3.20e5

CG1910 [DRSC15400]
- stable assay Renilla, run 1: 6314
- stable assay firefly, run 1: 4.31e5

PKD [DRSC16200]
- stable assay Renilla, run 1: 6758
- stable assay firefly, run 1: 3.53e5

CG8372 [DRSC03086]
- stable siRNA reporter change: reporter ratio raised past the hit cutoff
- stable assay Renilla, run 1: 60764
- stable assay firefly, run 1: 4.33e5

CG10919 [DRSC14283]
- stable assay Renilla, run 1: 6359
- stable assay firefly, run 1: 3.74e5

cerv [DRSC19681]
- stable assay Renilla, run 1: 5506
- stable assay firefly, run 1: 3.50e5

cerv [DRSC25320]
- miRNA reporter change: reporter ratio lowered past the hit cutoff

Atg10 [DRSC06172]
- stable assay Renilla, run 1: 6912
- stable assay firefly, run 1: 4.94e5

CG13043 [DRSC09924]
- stable assay Renilla, run 1: 7107
- stable assay firefly, run 1: 4.18e5

Gr8a [DRSC18043]
- stable assay Renilla, run 1: 4767
- stable assay firefly, run 1: 3.93e5

Nup153 [DRSC19904]
- stable assay Renilla, run 1: 5687
- stable assay firefly, run 1: 3.45e5

Sec13 [DRSC14144]
- stable assay Renilla, run 1: 10911
- stable assay firefly, run 1: 2.91e5

eIF3i [DRSC03464]
- stable assay Renilla, run 1: 8789
- stable assay firefly, run 1: 7.84e5

CG1271 [DRSC08290]
- stable assay Renilla, run 1: 8174
- stable assay firefly, run 1: 5.36e5

CG12159 [DRSC06114]
- stable assay Renilla, run 1: 6442
- stable assay firefly, run 1: 4.22e5

CG6216 [DRSC10606]
- stable assay Renilla, run 1: 5522
- stable assay firefly, run 1: 2.88e5

CG13727 [DRSC10055]
- stable assay Renilla, run 1: 6586
- stable assay firefly, run 1: 3.88e5

CG13050 [DRSC09931]
- stable assay Renilla, run 1: 6799
- stable assay firefly, run 1: 3.82e5

Ykt6 [DRSC17970]
- stable assay Renilla, run 1: 7119
- stable assay firefly, run 1: 3.18e5

Trmt6 [DRSC03272]
- stable assay Renilla, run 1: 8587
- stable assay firefly, run 1: 5.19e5

PAN2 [DRSC07115]
- stable siRNA reporter change: reporter ratio lowered past the hit cutoff
- stable assay Renilla, run 1: 3399
- stable assay firefly, run 1: 3.32e5

vimar [DRSC05026]
- stable assay Renilla, run 1: 3.64e5
- stable assay firefly, run 1: 1.47e6

CG7352 [DRSC16233]
- stable assay Renilla, run 1: 6748
- stable assay firefly, run 1: 4.04e5

CG12360 (retired record) [DRSC14505]
- stable assay Renilla, run 1: 7302
- stable assay firefly, run 1: 5.15e5

Mapmodulin [DRSC06956]
- stable assay Renilla, run 1: 9698
- stable assay firefly, run 1: 2.80e5

CG2113 [DRSC08554]
- stable assay Renilla, run 1: 6711
- stable assay firefly, run 1: 3.24e5

Fa2h [DRSC06608]
- stable assay Renilla, run 1: 7431
- stable assay firefly, run 1: 4.31e5

Fa2h [DRSC06609]
- stable assay Renilla, run 1: 6734
- stable assay firefly, run 1: 3.19e5
